No constants are given. Whether binding was seen depends on the method and setting. Binding seen in cells or lysates may run through a third protein. Some entries that bind do so weakly or less than the wild type.

Test [1] deals with T1, TAF9B (mouse (endogenous in EB-MN from murine ES cells and in newborn mouse spinal column)) (UniProt Q6NZA9).
T1 sequence: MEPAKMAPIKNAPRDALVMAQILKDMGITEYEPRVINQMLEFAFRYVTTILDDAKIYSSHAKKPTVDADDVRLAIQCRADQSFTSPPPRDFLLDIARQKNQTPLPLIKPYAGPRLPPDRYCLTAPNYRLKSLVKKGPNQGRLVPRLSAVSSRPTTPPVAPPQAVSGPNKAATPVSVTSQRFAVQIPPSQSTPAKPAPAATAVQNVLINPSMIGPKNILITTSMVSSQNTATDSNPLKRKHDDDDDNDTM
In words: co-IP; nuclear extract of EB-MN differentiated for 8 days; 1 mg extract with antibodies (TAF9B or TBP) on protein A sepharose or protein G Dynabeads overnight at 4°C; washes with 300 mM KCl, 0.05% NP-40 and once with 100 mM KCl; Western blotting.

Test [2] has as its target T2, TBP (mouse (endogenous in EB-MN from murine ES cells)) (UniProt P29037).
T2 sequence: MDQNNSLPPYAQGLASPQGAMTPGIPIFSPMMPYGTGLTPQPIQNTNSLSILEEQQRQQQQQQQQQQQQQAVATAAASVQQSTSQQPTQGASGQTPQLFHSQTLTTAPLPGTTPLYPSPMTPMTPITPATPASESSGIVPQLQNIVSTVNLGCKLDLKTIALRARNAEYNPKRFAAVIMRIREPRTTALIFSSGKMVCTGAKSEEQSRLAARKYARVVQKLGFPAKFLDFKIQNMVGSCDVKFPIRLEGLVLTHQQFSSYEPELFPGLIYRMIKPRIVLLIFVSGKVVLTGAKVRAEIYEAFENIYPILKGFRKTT
The description is as above.

B1: TAF4 (protein, UniProt E9QAP7 1-1042)
chain: MAAGSDLLDEVFFNSEVDEKVVSDLVGSLESQLAASAAHHHHLAPRTPELRAAAAGALGNHVVSGSPAGAAGAGPAASAEGAPAAAPEPPPAGRARPAGGGPRRPGSSSPRRLLVPAGPAPAPAKLRPLPEASAGPCPAAAAAAAATAAAVAGPDPAAAAPPAGPGASKPGPPGPPGPGAAQTLNGSAAPPTAPHAAPAVSPVNNGPAPPPAAGSVIQAAPAPAAPSPPAAPAPAAPPPPAPPAPVAPARPPGHPAAPAPPVSPAAAAAAAAAAAAAQNGAAPAPAAASGGAAGLGQPGAGAQGAKAEAPKPGPGPGPGPAAAAAAAGVAGGGAAGSVLLGPAMPGALPGPAPGTPAGLAKGAAAATPSLPRTPAATTGAIRATLTPTVLAPRLPQPPQNPTNIQNFQLPPGMVLVRSENGQLLMIPQQALAQMQAHAQAQPQSTMAPRPATPTGAPPVQISTVQAPGTPIIARQVTPTTIIKQVSQAQTTVQPTTTLQRSPGVQPQLVLGGSAQPASLGTATAVQTGTPQRTVPGASTTSTAATETMENVKKCKSFLSTLIKLASSGKQSTETAANVKDLVQNLLDGKIEAEDFTSRLYRELNSSPQPYLVPFLKRSLPALRQLTPDSAAFIQQSQQQQPPASQATTALTAVVLSSSVQRTAGKTAASVTSALQPPVISLTQPTQVGVGKQAPPTPLVIQQPPKPGALIRPPQVTLTQTPMVALRQPHNRIMLTTPQQIQLNQLQPVPVVKPTVLPGTKALSTVSAQAAAAQKNKLKEPGGGSFRDDDDINDVASMAGVNLSEESARILATNSELVGTLTRSCKDDTFLLPAPLQRRILEIGKKHGITELHPDVVSYVSHATQQRLQNLVEKISETAQQKNFSYKDDDRYEQASDVRAQLKFFEQLDQIEKQRKDEQEREILMRAAKSRSRQEDPEQLRLKQKAKEMQQQELAQMRQRDANLTALAAIGPRKKRKVDCTGPGSGAEGSGPGAAVPGGSGVGTPRQFTRQRITRVNLRDLIFCLENERETSHSLLLYKAFLK
For B1, the binding result in test [1] is listed as “binds weakly”; in test [2], “binds”.

B2: TAF7 (protein, UniProt Q9R1C0 1-341)
chain: MSKNKDDAPHELESQFILRLPPEYAATVRRAVQSGHVNLKDKLSIELHPDGRHGIVRVDRVPLAAKLVDLPCVTESLKTIDKKTFYKTADISQMLVATVDGDLYPPVEEAAATADPKANKKKDKDKEKKFVWNHGITLPLKNVRKRRFRKTAKKKYIESPDVEKEVKRLLSTDAEAVSTRWEIIAEDETKETENQGLDISSPGMSGHRQGHDSLEHDELREIFNDLSSSSEDEEDVNILDTEEDLERQLQDKLNESDEQHQENEGTNQLVMGIQKQIDNMKGKLQETQDRAKRQEDLIMKVENLALKNRFQAVLDELKQKEDREKEQLSSLQEELESLLEK
On to B2, for which the figures for the binding entry in test [1] and in test [2] were “binds weakly” and “binds”, respectively.

Source of the values: PMC4083437.
